PubChem BioAssay AID1259308 | NCATS – 2017
Aim: 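Genes whose loss raises luciferase production in HEK293 cells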 (primary screen). System: human HEK293 embryonic kidney cells stably expressing firefly luciferase (HEK-CMV-Luc2-Hygro). Reagents: single siRNA against human genes, 0.8 pmol siRNA per well. Time to read-out: 72 h. Detection: 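Luciferase light (ONE-Glo) measured on one replicate plate set and viability (CellTiter-Glo) on the other, scaled to a negative control siRNA, with robust z-scores and luciferase per cell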. Scale: total luciferase, z-score and total luciferase, % of control: higher = more reporter protein produced; luciferase per cell, z-score: higher = more reporter output per viable cell. Active means: 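Active when the median/MAD z-score for overall luciferase is greater than 3; a gene was taken forward for validation with new siRNAs if at least two of its three siRNAs passed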. Meaning of the calls: active = raised luciferase; inactive = no rise.
In all, the deposit lists about 59,000 reagents; this is an unselected part. Over the whole deposit, about 1,510 (2.6%) got an active call. 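Calls use total luciferase alone and ignore viability, so some active siRNAs may act by altering cell number.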 Unmarked entries are inactive. The numbers tell different reagents against one gene apart. Further read-outs or replicates are left out here. No sequences are given here.

The opening 2 entries, to show the layout:
gene symbol	siRNA no.	total luciferase, z-score	total luciferase, % of control	luciferase per cell, z-score
OSGEP	1	0.202	85.9	0.526
OSGEP	2	0.381	89.5	-0.316

The list itself, repeating the preview:
gene symbol	siRNA no.	total luciferase, z-score	total luciferase, % of control	luciferase per cell, z-score
OSGEP	1	0.202	85.9	0.526
OSGEP	2	0.381	89.5	-0.316
OSGEP	3	2.9	140	1.88
SGSM2	1	-0.81	65.8	-1.94
SGSM2	2	-0.695	68.1	-1.05
SGSM2	3	-0.46	72.7	-0.576
PRSS50	1	-1.11	59.9	-0.757
PRSS50	2	-1.02	61.5	0.00171
PRSS50	3	-0.342	75.1	-0.291
AICDA	1	1.92	120	0.896
AICDA	2	0.144	84.8	0.0157
AICDA	3	-1.28	56.5	-1.86
RGS2	1	-0.372	74.5	0.454
RGS2	2	3.98 (active)	161	2.58
RGS2	3	1.88	119	1.82
CABLES2	1	-0.95	63	-1.41
CABLES2	2	0.326	88.4	0.0561
CABLES2	3	-0.267	76.6	-0.54
TCERG1	1	2.2	126	2.12
TCERG1	2	2.67	135	1.37
TCERG1	3	3.08 (active)	143	2.59
SCGN	1	0.693	95.7	0.735
SCGN	2	-0.423	73.5	0.00156
SCGN	3	3	141	3.38
